According to patent US20230099707A1:

Target: recombinant AAV9 vector packaging a tdTomato transgene (AAV9)
Experiment: anti-AAV Western blot of TFF fractions after complex formation with matrix and 0.6 M NaCl (0.2 micron hollow fiber filter)

B1: purification matrix having an amino acid sequence of SEQ ID NO: 172 (designed binder)
chain: MSKGPGVGVPGLGVPGVGVPGLGVPGVGVPGVGVPGLGVPGVGVPGLGVPGVGVPGVGVPGLGVPGVGVPGLGVPGVGVPGVGVPGLGVPGVGVPGLGVPGVGVPGVGVPGLGVPGVGVPGLGVPGVGVPGVGVPGLGVPGVGVPGLGVPGVGVPGVGVPGLGVPGVGVPGLGVPGVGVPGVGVPGLGVPGVGVPGLGVPGVGVPGVGVPGLGVPGVGVPGLGVPGVGVPGVGVPGLGVPGVGVPGLGVPGVGVPGVGVPGLGVPGVGVPGLGVPGVGVPGVGVPGLGVPGVGVPGLGVPGVGVPGVGVPGLGVPGVGVPGLGVPGVGVPGVGVPGLGVPGVGVPGLGVPGVGVPGVGVPGLGVPGVGVPGLGVPGVGVPGVGVPGLGVPGVGVPGLGVPGVGVPGNRPPIAIVSPQFQEISLPTTSTVIDGSQSTDDDKIVQYHWEELKGPLREEKISEDTAILKLSKLVPGNYTFSLTVVDSDGATNSTTANLTVNKAVDYPG
  binding: binds

These are yes or no findings as the source states them, for the method shown. Binding can be weak; no strength is given.
